# Experimental data taken from patent US9376391B2, “Difluoromethyl-nicotinic-tetrahydronaphthyl carboxamides as fungicides” (BAYER CROPSCIENCE AKTIENGESELLSCHAFT, priority 2012, dated 2016).
# Assay: log P by HPLC on reversed phase columns (EEC directive 79/831 Annex V.A8)
# Format: physicochemical
# Conditions: Table 1, formula (I); HPLC/LC-MS at pH 2.7, 0.1% formic acid in water / acetonitrile, gradient 10% to 95%
smiles,measurement,value
Cc1cnc(C(F)F)c(C(=O)Nc2cccc3c2CC(C(C)C)C3(C)C)c1 (racemic) [Example 44],logP^[a],4.41^[a]
